Assay results from article PMC5507986.
These are yes or no findings as the source states them, for the method shown. Binding seen in cells or lysates may run through a third protein. Some binding calls cover weakened binding; strength is not graded here. For part of these data: Where a sequence is shown, tags or fusion partners need not be part of it.

By UniProt entry, the sequences of proteins in these tests, tags left out.
UniProt A2A935: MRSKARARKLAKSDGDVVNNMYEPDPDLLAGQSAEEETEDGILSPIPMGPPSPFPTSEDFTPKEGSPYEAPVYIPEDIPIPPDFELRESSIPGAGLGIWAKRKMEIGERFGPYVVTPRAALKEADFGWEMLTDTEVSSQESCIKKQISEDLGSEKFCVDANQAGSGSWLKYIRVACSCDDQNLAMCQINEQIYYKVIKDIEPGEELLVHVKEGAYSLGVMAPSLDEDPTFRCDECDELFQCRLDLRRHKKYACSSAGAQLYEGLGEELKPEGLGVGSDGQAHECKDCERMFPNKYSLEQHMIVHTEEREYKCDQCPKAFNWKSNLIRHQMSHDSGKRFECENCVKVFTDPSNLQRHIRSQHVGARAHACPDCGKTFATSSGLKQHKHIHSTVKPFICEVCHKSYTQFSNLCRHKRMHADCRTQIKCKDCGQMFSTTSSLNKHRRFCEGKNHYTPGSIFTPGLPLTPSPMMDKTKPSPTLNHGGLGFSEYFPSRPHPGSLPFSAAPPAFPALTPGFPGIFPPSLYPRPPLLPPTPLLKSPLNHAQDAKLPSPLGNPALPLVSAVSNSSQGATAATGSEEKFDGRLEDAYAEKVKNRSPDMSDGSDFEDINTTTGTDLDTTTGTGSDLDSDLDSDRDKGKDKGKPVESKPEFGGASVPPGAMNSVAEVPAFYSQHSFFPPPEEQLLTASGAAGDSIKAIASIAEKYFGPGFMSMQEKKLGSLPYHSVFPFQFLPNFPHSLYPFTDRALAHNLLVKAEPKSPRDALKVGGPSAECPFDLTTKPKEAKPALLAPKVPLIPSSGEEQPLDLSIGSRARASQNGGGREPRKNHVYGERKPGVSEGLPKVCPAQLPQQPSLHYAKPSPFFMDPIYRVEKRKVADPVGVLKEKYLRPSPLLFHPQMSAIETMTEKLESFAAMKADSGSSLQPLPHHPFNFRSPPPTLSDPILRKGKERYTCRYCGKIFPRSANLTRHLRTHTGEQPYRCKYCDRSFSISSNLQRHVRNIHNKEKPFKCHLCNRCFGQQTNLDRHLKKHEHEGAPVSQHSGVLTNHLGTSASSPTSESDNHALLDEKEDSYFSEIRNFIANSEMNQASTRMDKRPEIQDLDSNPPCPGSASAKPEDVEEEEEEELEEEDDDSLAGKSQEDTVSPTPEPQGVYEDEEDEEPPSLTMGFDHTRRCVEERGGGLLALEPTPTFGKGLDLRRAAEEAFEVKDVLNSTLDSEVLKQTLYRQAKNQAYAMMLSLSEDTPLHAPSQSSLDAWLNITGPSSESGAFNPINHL

T1: Flag-Hlx (not stated (human or mouse cDNA cloned)) (UniProt Q61670)
T1 sequence: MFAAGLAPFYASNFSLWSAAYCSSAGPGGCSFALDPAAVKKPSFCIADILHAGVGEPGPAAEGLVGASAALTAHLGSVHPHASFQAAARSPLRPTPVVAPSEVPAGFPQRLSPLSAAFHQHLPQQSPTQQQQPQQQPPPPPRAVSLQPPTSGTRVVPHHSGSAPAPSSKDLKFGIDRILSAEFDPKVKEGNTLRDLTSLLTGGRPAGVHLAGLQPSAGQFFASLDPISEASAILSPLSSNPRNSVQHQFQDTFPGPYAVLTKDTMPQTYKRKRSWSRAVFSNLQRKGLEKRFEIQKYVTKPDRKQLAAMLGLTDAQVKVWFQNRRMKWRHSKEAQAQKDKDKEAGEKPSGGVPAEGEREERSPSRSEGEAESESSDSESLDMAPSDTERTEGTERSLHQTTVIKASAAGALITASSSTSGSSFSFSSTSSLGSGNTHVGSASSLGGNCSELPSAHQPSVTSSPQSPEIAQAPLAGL

T2: Hlx (endogenous, brown adipocytes) (mouse (endogenous in immortalized brown adipocytes)) (UniProt Q61670)
T2 sequence: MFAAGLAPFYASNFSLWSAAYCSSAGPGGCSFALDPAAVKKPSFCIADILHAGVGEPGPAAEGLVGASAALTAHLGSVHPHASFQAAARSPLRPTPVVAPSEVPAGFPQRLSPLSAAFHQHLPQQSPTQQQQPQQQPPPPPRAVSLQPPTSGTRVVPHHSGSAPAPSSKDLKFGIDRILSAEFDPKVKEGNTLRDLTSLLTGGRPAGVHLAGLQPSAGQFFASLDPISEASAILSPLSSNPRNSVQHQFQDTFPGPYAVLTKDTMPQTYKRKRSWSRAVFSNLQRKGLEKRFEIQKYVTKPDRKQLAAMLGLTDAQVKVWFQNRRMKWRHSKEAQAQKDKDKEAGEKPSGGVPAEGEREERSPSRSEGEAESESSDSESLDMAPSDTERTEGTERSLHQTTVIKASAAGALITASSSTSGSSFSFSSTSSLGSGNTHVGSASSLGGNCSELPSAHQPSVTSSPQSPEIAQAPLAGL


Assays:
[1] = molecular target: T1, Flag-Hlx (not stated (human or mouse cDNA cloned)); assay: co-IP; Flag-Hlx (or vector) and HA-tagged partner transfected into HEK293 cells, 48 h; extracts in 100 mM NaCl, 50 mM Tris pH 7.5, 0.5% Triton X-100, 5% glycerol; anti-Flag M2 affinity gel 3 h; four washes (100 mM NaCl, 50 mM Tris pH 7.5, 0.1% NP-40, 3% glycerol); blot with HA antibody
[2] = molecular target: T2, Hlx (endogenous, brown adipocytes) (mouse (endogenous in immortalized brown adipocytes)); assay: co-IP; endogenous proteins; differentiated brown adipocyte extracts; Hlx antibody or IgG overnight at 4 °C, protein-A beads 3 h; five washes; blot with Prdm16 antibody

Molecule | binding [1] | binding [2]
HA-Prdm16 (from UniProt A2A935 1-1275) | binds | 
Prdm16 (endogenous, brown adipocytes) (from UniProt A2A935 1-1275) |  | binds
HA-Pgc1α (protein, UniProt O70343 1-797) MAWDMCSQDSVWSDIECAALVGEDQPLCPDLPELDLSELDVNDLDTDSFLGGLKWCSDQSEIISNQYNNEPANIFEKIDEENEANLLAVLTETLDSLPVDEDGLPSFDALTDGAVTTDNEASPSSMPDGTPPPQEAEEPSLLKKLLLAPANTQLSYNECSGLSTQNHAANHTHRIRTNPAIVKTENSWSNKAKSICQQQKPQRRPCSELLKYLTTNDDPPHTKPTENRNSSRDKCASKKKSHTQPQSQHAQAKPTTLSLPLTPESPNDPKGSPFENKTIERTLSVELSGTAGLTPPTTPPHKANQDNPFKASPKLKPSCKTVVPPPTKRARYSECSGTQGSHSTKKGPEQSELYAQLSKSSGLSRGHEERKTKRPSLRLFGDHDYCQSLNSKTDILINISQELQDSRQLDFKDASCDWQGHICSSTDSGQCYLRETLEASKQVSPCSTRKQLQDQEIRAELNKHFGHPCQAVFDDKSDKTSELRDGDFSNEQFSKLPVFINSGLAMDGLFDDSEDESDKLSYPWDGTQPYSLFDVSPSCSSFNSPCRDSVSPPKSLFSQRPQRMRSRSRSFSRHRSCSRSPYSRSRSRSPGSRSSSRSCYYYESSHYRHRTHRNSPLYVRSRSRSPYSRRPRYDSYEAYEHERLKRDEYRKEHEKRESERAKQRERQKQKAIEERRVIYVGKIRPDTTRTELRDRFEVFGEIEECTVNLRDDGDSYGFITYRYTCDAFAALENGYTLRRSNETDFELYFCGRKQFFKSNYADLDTNSDDFDPASTKSKYDSLDFDSLLKEAQRSLRR | no binding | 
